{
  "source": "patent US6147097A",
  "about": "“Imidazole derivatives as anti-HIV agents” (Shionogi & Co., Ltd., priority 1994, dated 2000)",
  "tested_on": "HIV (HTLV-IIIB strain)",
  "type": "cell-based",
  "parameters": "unit not given beside the values",
  "conditions": "MT-4 cells, 60 pfu HIV per well, 37° C., 5 days, MTT; Tables 1 and 2",
  "experimental": "The anti-HIV activity of each of the compounds produced in Examples was assayed by the following procedures. […] On the other hand, the test compound was diluted with the above culture medium to predetermined concentrations and distributed in 50 μl aliquots into a 96-well microtiter plate. Then, d suspension of MT-4 cells was added in 100 μl aliquots (3.5×10^4 cells per well) and then the above HIV-containing supernatant diluted with the above culture medium was added, 50 μl (60 pfu (plaque forming units)) per well. (2) The plate was incubated in a CO2 incubator at 37° C. for 5 days. Then, 30 μl/well of 3-(4,5-dimethyl thiazol-2-yl)-2,5-diphenyltetrazolium bromide (MTT) (5 mg/ml PBS) was added and the incubation was further continued for 1 hour. The surviving cells reducing MTT yield precipitation of formazan. Therefore, 150 μl portions of the culture supernatant were removed from all wells and, instead, 150 μl of a solution (10% Triton X-100 and 0.4% (v/v) HCl-added isopropyl alcohol) was added. The plate was shaken on a plate mixer to dissolve the formazan.",
  "note": "At least one compound was matched to its structure with a doubt left.",
  "data": [
    {"smiles": "CC(C)c1nc(CO)n(Cc2cccc(N)c2)c1Sc1cc(Cl)cc(Cl)c1", "note": "[Compound I-118, 1-(m-aminobenzyl)-5-(3,5-dichlorophenylthio)-2-hydroxymethyl-4-isopropyl-1H-imidazole]", "values": [
      {"measurement": "EC50", "value": "0.05-0.01"}
    ]}
  ]
}
